This data set is described as follows: Compounds removed by water washing rectified peppermint oil, SPME GC-MS before/after. Particulars: 1:1 water to oil; for ~% Reduction: water washing 5 hours + 7 hours fresh water, gentle stirring, estimated from chromatograms; for concentration change of major components by water washing: water washing 5 hours + 7 hours. It counts as physicochemical.

Results on 34 compounds are retold here after patent US8865192B2, “Flavor oils with reduced sulfur content and use in oral care compositions” (The Procter & Gamble Co, priority 2006, dated 2014).

Structures can show the parent of a compound that is named as a salt. Some entries repeat one wording, which the source may state once for all of them.

As for `CCCCCC=O` [Compound 26, Hexanal], the “~% Reduction” value is on record as roughly 15%.
`CC(C)[C@@H]1CC[C@@H](C)CC1=O` [menthone]: the “concentration change of major components by water washing” value (“concentration change” below) is reported as “not significantly changed”.
In the case of `CC(C)CC=O` [Compound 17, 3-Methyl butanal], the “~% Reduction” value is listed as roughly 50%.
Consider `CC(C)=CC=O` [Compound 25, 3-Methyl crotonaldehyde], for which the “~% Reduction” value is listed as roughly 30%.
For the compound `COC(C)=O` [Compound 7, Acetic acid methyl ester], the “~% Reduction” value is recorded as roughly 85%.
For `c1ccoc1` [Compound 5, Furan], the “~% Reduction” value is roughly 90%.
For the compound `Cc1ccoc1` [Compound 14, 3-Methyl furan], the “~% Reduction” value is on record as roughly 70%.
In the case of `CSSC` [Compound 24, Dimethyl disulfide], the “~% Reduction” value is on record as roughly 40%.
For the compound `CCC(C)C=O` (stereo not shown) [Compound 18, 2-Methyl butanal], the “~% Reduction” value was roughly 50%.
For the compound `C=C1CCC2CC1C2(C)C` (stereo not drawn) [beta-pinene], the “concentration change” value is on record as “not significantly changed”.
Consider `C[S+](C)[O-]` [Compound 27, Dimethyl sulfoxide], for which the “~% Reduction” value was 99^+ %.
Turning to `CC1CCC(C(C)C)C(O)C1` (stereo not shown) [menthol], the “concentration change” value is recorded as “not significantly changed”.
`CCC1CCC(CC)O1` (stereo not shown) [Compound 30, 2,5-Diethyl THF]: the “~% Reduction” value was roughly 5%.
Turning to `C=C(C)[C@H]1CC=C(C)CC1` [limonene], the “concentration change” value is recorded as “not significantly changed”.
For the compound `S=C=S` [Compound 9, Carbon disulfide], the “~% Reduction” value was roughly 90%.
With `Cc1ccco1` [Compound 13, 2-Methyl furan], the “~% Reduction” value was roughly 70%.
Take `CC(C)=O` [Compound 4, Acetone]: the “~% Reduction” value is roughly 65%.
As for `O=Cc1ccco1` [Compound 28, Furfural], the “~% Reduction” value was roughly 35%.
On to `CC1=CCC2CC1C2(C)C` (stereo not drawn) [alpha-pinene], for which the “concentration change” value is on record as “not significantly changed”.
With `CCCC=CC=O` [Compound 29, 2-Hexenal], the “~% Reduction” value is recorded as roughly 15%.
On to `CCC(C)=O` [Compound 12, 2-Butanone], for which the “~% Reduction” value is roughly 70%.
Same read-out and setting: the value for `CC(C)CO` [Compound 15, 2-Methyl-1-propanol] was roughly 40%; that for `C/C=C(\C)C=O` [Compound 23, 2-Methyl crotonaldehyde] was roughly 30%; that for `OC1CCCC1` [Compound 20, Cyclopentanol] was roughly 35%.
Turning to `CC(=O)O` [Compound 11, Acetic acid], the “~% Reduction” value is listed as roughly 70%.
As to `COC=O` [Compound 2, Methyl formate], the “~% Reduction” value was roughly 95%.
Consider `C/C=C/C=O` [Compound 16, Crotonaldehyde], for which the “~% Reduction” value is reported as roughly 60%.
As for `CCC(C)CO` (stereo not shown) [Compound 22, 2-Methyl-1-butanol], the “~% Reduction” value is on record as roughly 15%.
For `CSC` [Compound 8, Dimethyl sulfide], the “~% Reduction” value was 99^+ %.
Same read-out and setting: the value for `CC(C)C=O` [Compound 10, 2-Methyl propanal] was roughly 60%; that for `CO` [Compound 1, Methanol] was roughly 95%.
Same read-out and setting: then `CCCC(C)=O` [Compound 19, 2-Pentanone], with roughly 35%; and `CCO` [Compound 3, Ethanol], with roughly 95%.
As for `CCc1ccco1` [Compound 21, 2-Ethyl furan], the “~% Reduction” value was roughly 20%.
